Source: the supplement of paper PMC10849652
The list shows a part of the results.

The chains behind the UniProt entries cited, without tags or fusion partners. Where a name states a change or a piece, a line headed by the entry shows the natural chain unless it says otherwise.
UniProt P98171: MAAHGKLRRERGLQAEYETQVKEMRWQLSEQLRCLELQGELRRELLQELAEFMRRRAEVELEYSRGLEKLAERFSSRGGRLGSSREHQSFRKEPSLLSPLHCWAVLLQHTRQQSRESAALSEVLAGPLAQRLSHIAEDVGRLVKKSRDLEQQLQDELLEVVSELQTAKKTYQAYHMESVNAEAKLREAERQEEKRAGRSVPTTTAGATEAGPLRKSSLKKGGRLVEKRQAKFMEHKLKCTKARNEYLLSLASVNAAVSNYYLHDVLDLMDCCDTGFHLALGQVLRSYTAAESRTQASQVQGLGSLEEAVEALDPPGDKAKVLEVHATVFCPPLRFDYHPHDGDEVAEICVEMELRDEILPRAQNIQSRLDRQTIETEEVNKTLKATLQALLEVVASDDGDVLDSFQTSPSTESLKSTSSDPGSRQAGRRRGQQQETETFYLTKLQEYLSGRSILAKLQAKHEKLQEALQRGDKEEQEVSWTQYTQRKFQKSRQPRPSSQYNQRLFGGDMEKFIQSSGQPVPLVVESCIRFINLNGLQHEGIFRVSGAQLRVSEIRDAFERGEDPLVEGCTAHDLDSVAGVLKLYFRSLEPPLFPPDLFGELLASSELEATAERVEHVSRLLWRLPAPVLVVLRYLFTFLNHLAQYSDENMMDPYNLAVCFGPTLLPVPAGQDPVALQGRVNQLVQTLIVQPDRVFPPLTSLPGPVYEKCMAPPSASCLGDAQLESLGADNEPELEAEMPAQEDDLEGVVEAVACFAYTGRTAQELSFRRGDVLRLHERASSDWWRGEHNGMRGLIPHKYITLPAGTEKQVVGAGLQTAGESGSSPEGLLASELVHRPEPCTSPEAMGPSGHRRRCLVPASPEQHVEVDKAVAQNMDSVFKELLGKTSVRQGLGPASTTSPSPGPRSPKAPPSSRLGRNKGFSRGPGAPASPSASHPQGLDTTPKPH
UniProt Q10567: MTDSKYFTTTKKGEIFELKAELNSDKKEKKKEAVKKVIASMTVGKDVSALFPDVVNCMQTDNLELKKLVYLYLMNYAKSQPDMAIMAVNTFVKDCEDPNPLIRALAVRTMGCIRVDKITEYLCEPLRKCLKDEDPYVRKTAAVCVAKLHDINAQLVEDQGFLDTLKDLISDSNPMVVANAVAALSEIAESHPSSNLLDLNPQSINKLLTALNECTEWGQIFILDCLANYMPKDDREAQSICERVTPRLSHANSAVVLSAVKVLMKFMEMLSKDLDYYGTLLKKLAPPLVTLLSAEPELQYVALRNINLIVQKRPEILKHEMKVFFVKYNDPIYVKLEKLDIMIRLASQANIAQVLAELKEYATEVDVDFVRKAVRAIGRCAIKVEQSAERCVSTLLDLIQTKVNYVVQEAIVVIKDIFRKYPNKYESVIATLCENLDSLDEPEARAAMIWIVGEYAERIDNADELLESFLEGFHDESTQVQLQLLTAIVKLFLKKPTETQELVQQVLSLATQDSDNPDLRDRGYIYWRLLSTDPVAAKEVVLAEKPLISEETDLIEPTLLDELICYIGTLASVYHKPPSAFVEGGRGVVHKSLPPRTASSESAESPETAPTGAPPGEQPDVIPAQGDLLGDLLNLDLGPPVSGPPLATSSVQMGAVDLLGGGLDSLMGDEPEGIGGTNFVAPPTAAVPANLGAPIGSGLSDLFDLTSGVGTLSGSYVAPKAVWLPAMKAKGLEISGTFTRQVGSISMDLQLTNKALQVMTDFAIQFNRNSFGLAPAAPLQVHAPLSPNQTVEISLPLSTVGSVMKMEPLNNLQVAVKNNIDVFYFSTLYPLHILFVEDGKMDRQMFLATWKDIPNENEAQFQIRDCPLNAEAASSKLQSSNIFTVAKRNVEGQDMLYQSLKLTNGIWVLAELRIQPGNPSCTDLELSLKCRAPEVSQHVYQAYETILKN
UniProt Q9BZZ5: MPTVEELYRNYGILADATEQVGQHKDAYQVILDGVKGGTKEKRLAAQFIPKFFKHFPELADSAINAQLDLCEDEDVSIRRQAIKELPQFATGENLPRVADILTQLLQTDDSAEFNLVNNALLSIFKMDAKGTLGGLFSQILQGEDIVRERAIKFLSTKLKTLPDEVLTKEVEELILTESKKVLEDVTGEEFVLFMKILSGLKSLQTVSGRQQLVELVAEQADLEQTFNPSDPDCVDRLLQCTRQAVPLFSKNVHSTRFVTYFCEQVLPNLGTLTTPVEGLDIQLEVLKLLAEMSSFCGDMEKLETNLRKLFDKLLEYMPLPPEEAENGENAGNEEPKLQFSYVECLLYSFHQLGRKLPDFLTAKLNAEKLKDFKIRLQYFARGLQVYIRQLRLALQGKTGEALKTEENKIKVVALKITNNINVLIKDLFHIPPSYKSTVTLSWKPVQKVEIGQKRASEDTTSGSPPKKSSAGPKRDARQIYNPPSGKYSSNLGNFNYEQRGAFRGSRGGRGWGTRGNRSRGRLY
UniProt Q9UH17: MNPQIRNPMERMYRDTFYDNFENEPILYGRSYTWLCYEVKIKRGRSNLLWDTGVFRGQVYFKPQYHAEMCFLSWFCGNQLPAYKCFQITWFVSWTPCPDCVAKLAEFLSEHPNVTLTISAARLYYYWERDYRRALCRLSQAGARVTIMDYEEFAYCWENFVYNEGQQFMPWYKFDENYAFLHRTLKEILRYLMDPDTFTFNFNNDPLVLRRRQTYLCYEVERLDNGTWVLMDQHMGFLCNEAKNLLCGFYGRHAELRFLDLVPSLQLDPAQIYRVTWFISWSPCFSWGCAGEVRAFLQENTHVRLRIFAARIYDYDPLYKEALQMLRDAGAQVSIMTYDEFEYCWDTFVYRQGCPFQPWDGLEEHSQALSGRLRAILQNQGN
UniProt Q8IW19: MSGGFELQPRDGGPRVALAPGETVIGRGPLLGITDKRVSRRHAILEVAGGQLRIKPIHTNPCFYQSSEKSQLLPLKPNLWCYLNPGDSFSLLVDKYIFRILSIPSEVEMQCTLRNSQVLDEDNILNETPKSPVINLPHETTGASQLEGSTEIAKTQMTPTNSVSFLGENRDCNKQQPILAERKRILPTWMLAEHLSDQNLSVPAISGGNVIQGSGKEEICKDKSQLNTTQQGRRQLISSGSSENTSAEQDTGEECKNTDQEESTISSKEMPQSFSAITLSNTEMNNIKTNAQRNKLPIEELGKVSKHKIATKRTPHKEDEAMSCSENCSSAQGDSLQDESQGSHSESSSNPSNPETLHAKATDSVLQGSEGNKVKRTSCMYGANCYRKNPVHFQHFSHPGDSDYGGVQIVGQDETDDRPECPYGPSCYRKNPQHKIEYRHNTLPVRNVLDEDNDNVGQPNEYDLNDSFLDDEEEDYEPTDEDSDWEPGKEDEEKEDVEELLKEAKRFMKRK

Assays:
Experiment in all cases: log2 fold change, soluble protein after heating vs DMSO (PISA); higher = thermal stabilisation; K562 cells, 10 uM, 30 min; active = over 0.2 and 3.5 SD of the protein, either way, in both replicates (recomputed)
[1] = compound: CS(=O)(=O)c1ccc(-c2cnc(N)c(C(=O)Nc3ccccc3)n2)cc1
Procedure, shortened: (§1)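 K562 cells at 2×10^6 cells/mL were given 10 μM compound for 30 min. Aliquots then went through 3 min of heating across 48°C-58°C, were pooled, and were extracted in PBS with 0.5% NP-40 at 4°C, and the supernatant after 21,000xg for 90 min was quantified by TMTpro 16plex LC-MS/MS with channel sums equalised. Thermal stability relative to control samples, from duplicates, is given as log2 fold change.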

[2] = compound: C[C@H](C1=CC=C(C=C1)C(=O)NC2=C3C=CNC3=NC=C2)N
Procedure, shortened: as §1

[3] = compound: Cc1cc(SCc2sc(-c3ccc(C(F)(F)F)cc3)nc2C)ccc1OCC(=O)O
Procedure, shortened: as §1

ispinesib = compound: Cc1ccc(C(=O)N(CCCN)[C@@H](c2nc3cc(Cl)ccc3c(=O)n2Cc2ccccc2)C(C)C)cc1 [ispinesib]
Procedure, shortened: as §1

bafetinib = compound: Cc1ccc(NC(=O)c2ccc(CN3CC[C@H](N(C)C)C3)c(C(F)(F)F)c2)cc1Nc1nccc(-c2cncnc2)n1 [bafetinib]
Procedure, shortened: as §1

nilotinib = compound: Cc1cn(-c2cc(NC(=O)c3ccc(C)c(Nc4nccc(-c5cccnc5)n4)c3)cc(C(F)(F)F)c2)cn1 [nilotinib]
Procedure, shortened: as §1

[4] = compound: Cc1nc(Nc2n[nH]c3c2CN(C(=O)N[C@H](CN(C)C)c2ccccc2)C3(C)C)c2sccc2n1
Procedure, shortened: as §1

dasatinib = compound: Cc1nc(Nc2ncc(C(=O)Nc3c(C)cccc3Cl)s2)cc(N2CCN(CCO)CC2)n1 [dasatinib]
Procedure, shortened: as §1

[5] = compound: Cc1ncc(-c2ccnc(Nc3ccc(S(C)(=O)=O)cc3)n2)n1C(C)C
Procedure, shortened: as §1

[6] = compound: Cn1cc(-c2ccc3c(c2)CCN3C(=O)Cc2cccc(C(F)(F)F)c2)c2c(N)ncnc21
Procedure, shortened: as §1

[7] = compound: Cn1cc(-c2ccc3nnc(C(F)(F)c4ccc5ncccc5c4)n3n2)cn1
Procedure, shortened: as §1

tipifarnib = compound: Cn1cncc1[C@@](N)(c1ccc(Cl)cc1)c1ccc2c(c1)c(-c1cccc(Cl)c1)cc(=O)n2C [tipifarnib]
Procedure, shortened: as §1

mubritinib = compound: FC(F)(F)c1ccc(/C=C/c2nc(COc3ccc(CCCCn4ccnn4)cc3)co2)cc1 [mubritinib]
Procedure, shortened: as §1

crizotinib = compound: C[C@@H](Oc1cc(-c2cnn(C3CCNCC3)c2)cnc1N)c1c(Cl)ccc(F)c1Cl [crizotinib]
Procedure, shortened: as §1

[8] = compound: C[C@@H]1COCCN1C2=NC(=NC(=C2)C3(CC3)S(=O)(=O)C)C4=C5C=CNC5=CC=C4
Procedure, shortened: as §1

duvelisib = compound: C[C@H](Nc1ncnc2nc[nH]c12)c1cc2cccc(Cl)c2c(=O)n1-c1ccccc1 [duvelisib]
Procedure, shortened: as §1

gandotinib = compound: Cc1cc(Nc2cc(CN3CCOCC3)c3nc(C)c(Cc4ccc(Cl)cc4F)n3n2)n[nH]1 [gandotinib]
Procedure, shortened: as §1

tozasertib = compound: Cc1cc(Nc2cc(N3CCN(C)CC3)nc(Sc3ccc(NC(=O)C4CC4)cc3)n2)n[nH]1 [tozasertib]
Procedure, shortened: as §1

doramapimod = compound: Cc1ccc(-n2nc(C(C)(C)C)cc2NC(=O)Nc2ccc(OCCN3CCOCC3)c3ccccc23)cc1 [doramapimod]
Procedure, shortened: as §1

[9] = compound: Cc1cccc(CC(=O)N2CCc3c2ccc(-c2cn(C)c4ncnc(N)c24)c3F)n1
Procedure, shortened: as §1

| Target | log2 fold change [1] | log2 fold change [2] | log2 fold change [3] | log2 fold change (ispinesib) | log2 fold change (bafetinib) | log2 fold change (nilotinib) | log2 fold change [4] | log2 fold change (dasatinib) | log2 fold change [5] | log2 fold change [6] | log2 fold change [7] | log2 fold change (tipifarnib) | log2 fold change (mubritinib) | log2 fold change (crizotinib) | log2 fold change [8] | log2 fold change (duvelisib) | log2 fold change (gandotinib) | log2 fold change (tozasertib) | log2 fold change (doramapimod) | log2 fold change [9] |
| --- | --- | --- | --- | --- | --- | --- | --- | --- | --- | --- | --- | --- | --- | --- | --- | --- | --- | --- | --- | --- |
| ARHGAP4 isoform 2 (UniProt P98171) | inactive: 0.023 | inactive: 0.212 | inactive: 0.131 | inactive: -0.111 | active: 0.709 | inactive: -0.137 | inactive: 0.436 | inactive: -0.097 | inactive: -0.174 | inactive: -0.06 | inactive: -0.046 | inactive: 0.161 | inactive: -0.164 |  |  |  |  |  |  |  |
| AP1B1 isoform 3 (UniProt Q10567) |  | inactive: 0.087 | inactive: -0.105 | inactive: 0.028 |  | inactive: 0.02 | inactive: -0.014 | inactive: -0.063 | inactive: 0.045 | inactive: 0.015 | inactive: -0.082 | inactive: -0.072 | inactive: -0.011 | inactive: 0.112 | inactive: 0.081 | inactive: 0.103 | inactive: 0 | inactive: 0.085 | inactive: -0.068 | inactive: -0.053 |
| API5 isoform 1 (UniProt Q9BZZ5) |  | inactive: -0.268 | inactive: -0.079 |  |  | inactive: -0.267 | inactive: -0.242 | inactive: -0.095 | inactive: 0.196 | inactive: 0.201 |  | inactive: 0.128 |  |  | inactive: -0.025 | inactive: 0.151 |  | inactive: 0.188 |  |  |
| APOBEC3B (UniProt Q9UH17) |  | inactive: 0.038 |  | inactive: -0.227 |  | inactive: -0.031 | inactive: -0.2 |  | inactive: 0.05 | inactive: -0.087 | inactive: 0.212 |  |  | inactive: -0.161 |  |  |  |  | inactive: 0.153 |  |
| APLF (UniProt Q8IW19) |  | inactive: 0.536 |  |  |  |  |  |  |  | inactive: -0.019 |  | inactive: -0.06 |  |  |  |  |  |  |  |  |
